Measurements reported in patent publication US20090054376A1, “BENZOFURAN DERIVATIVES WITH THERAPEUTIC ACTIVITIES” (Pharmos Corporation, priority 2005, published 2009).

System: visceral pain writhing responses
Test: Visceral pain, acetic acid induced writhing responses
Format: in vivo, Male ICR mice
Conditions: i.v.; estimated or calculated from dose range
Method: Male ICR mice (average body weight 25 g, Harlan, Israel) were pretreated by i.v. injection at volume dose of 5 ml/kg of vehicle, control and test compounds at various doses. Other routes of administration were tested for selected compounds including i.m. or s.c. injections at volume dose of 2.5 ml/kg and p.o. gavage at volume dose of 5 ml/kg. Compounds were dissolved in CREMOPHOR®:Ethanol and diluted 1:20 in saline prior to injection or gavage. Compounds administered i.v. were injected fifteen minutes before pain induction, whereas compounds administered i.m., s.c. or p.o. were supplied thirty minutes before pain induction, unless otherwise indicated. Each treatment group, except for controls comprising at least 30 animals, was composed of at least 6 animals. Fifteen or thirty minutes after drug administration, depending on the route of administration, the mice were injected i.p. with 10 ml/kg of 0.6% acetic acid and the number of visceral pain related behaviors (writhing movements globally defined as WR, i.e. stretching, contractions of the abdomen accompanied by an elongation of the body and extension of the hind limbs) was counted over a period of 5 minutes, starting 5 minutes after the acetic acid administration. […] The results are expressed as mean number of writhing responses ±SEM. Data were analyzed using analysis of variance (ANOVA) followed by post-hoc Fisher test.

## CN1CC[C@]23c4c5ccc(O)c4O[C@H]2[C@@H](O)C=C[C@H]3[C@H]1C5 [morphine, reference compound]
  IC50 in visceral pain: 1.07 mg/kg
